Measurements: PMC2657825
No constants are given. Whether binding was seen depends on the method and setting. In cells and extracts the contact can be indirect. Some entries that bind do so weakly or less than the wild type.

Amino acid sequences for entries named in this document (tags omitted).
UniProt P07355: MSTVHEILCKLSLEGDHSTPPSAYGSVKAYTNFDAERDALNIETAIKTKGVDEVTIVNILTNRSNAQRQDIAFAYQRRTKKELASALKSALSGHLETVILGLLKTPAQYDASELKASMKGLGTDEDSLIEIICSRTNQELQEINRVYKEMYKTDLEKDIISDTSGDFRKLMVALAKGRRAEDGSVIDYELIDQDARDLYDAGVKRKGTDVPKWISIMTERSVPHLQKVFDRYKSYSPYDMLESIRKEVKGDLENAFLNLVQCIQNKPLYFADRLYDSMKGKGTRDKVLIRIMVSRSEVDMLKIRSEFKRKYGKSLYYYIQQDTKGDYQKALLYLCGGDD
UniProt P60903: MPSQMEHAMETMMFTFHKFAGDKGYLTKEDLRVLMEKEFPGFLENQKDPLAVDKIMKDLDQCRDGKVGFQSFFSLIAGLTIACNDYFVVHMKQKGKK

Molecular target: Anx2C-FR1 (Annexin 2 fused to fragment 1 of YFP, Anx2 at the C-terminus of the construct) (UniProt P07355)
Assay: split reporter; YFP fragment fusions cotransfected into 293T cells (with empty vector or Arf6/Q67L), fixed 36 h after transfection, DAPI, confocal microscopy

- binding: binds
Substance: p11N-FR2 (p11 fused to fragment 2 of YFP) (from UniProt P60903 1-97)
